Data: the supplement of paper PMC11006884
Most of the targets with a hit are listed elsewhere, so they are rarer here than in the full data. This is a noisy data set. The entries are a selection whose mix differs from that of the whole data set.

Sequences of proteins named here, by UniProt entry; tags and fusion partners are left off. A change or cut given only in a name is not applied to a line headed by its entry.
UniProt Q13838, whole entry, looked up: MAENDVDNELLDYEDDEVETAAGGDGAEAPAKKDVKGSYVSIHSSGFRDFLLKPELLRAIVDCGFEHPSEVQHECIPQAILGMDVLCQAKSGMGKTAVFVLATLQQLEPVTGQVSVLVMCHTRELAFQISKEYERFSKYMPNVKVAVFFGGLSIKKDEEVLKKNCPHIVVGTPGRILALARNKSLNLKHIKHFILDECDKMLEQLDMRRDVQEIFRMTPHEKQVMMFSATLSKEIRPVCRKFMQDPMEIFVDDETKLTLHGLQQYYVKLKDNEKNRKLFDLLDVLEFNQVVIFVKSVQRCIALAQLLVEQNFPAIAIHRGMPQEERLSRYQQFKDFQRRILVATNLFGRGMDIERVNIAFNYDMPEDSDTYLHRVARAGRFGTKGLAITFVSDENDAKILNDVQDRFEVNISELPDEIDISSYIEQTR
UniProt Q13642: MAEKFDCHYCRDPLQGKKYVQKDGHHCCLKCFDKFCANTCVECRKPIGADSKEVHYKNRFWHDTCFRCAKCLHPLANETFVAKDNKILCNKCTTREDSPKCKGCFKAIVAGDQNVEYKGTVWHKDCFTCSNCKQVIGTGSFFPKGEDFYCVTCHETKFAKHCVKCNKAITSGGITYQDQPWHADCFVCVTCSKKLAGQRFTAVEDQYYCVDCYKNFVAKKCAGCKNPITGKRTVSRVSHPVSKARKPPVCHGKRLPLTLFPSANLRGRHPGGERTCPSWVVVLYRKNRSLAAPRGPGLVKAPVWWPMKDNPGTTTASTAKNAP
UniProt Q14498: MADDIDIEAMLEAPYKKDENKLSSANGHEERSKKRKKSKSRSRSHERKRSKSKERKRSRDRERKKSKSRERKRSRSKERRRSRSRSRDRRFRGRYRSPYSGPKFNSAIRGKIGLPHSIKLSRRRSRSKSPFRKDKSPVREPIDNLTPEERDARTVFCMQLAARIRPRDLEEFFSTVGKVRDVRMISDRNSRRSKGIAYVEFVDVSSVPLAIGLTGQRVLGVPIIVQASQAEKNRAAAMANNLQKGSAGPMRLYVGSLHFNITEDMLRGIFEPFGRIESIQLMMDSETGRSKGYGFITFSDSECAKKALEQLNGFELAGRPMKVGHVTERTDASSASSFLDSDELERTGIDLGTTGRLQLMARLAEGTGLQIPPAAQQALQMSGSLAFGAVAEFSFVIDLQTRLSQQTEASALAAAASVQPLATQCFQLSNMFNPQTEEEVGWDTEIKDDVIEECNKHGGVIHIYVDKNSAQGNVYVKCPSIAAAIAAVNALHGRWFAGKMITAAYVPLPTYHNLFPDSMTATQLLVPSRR
UniProt Q14204, whole entry, looked up: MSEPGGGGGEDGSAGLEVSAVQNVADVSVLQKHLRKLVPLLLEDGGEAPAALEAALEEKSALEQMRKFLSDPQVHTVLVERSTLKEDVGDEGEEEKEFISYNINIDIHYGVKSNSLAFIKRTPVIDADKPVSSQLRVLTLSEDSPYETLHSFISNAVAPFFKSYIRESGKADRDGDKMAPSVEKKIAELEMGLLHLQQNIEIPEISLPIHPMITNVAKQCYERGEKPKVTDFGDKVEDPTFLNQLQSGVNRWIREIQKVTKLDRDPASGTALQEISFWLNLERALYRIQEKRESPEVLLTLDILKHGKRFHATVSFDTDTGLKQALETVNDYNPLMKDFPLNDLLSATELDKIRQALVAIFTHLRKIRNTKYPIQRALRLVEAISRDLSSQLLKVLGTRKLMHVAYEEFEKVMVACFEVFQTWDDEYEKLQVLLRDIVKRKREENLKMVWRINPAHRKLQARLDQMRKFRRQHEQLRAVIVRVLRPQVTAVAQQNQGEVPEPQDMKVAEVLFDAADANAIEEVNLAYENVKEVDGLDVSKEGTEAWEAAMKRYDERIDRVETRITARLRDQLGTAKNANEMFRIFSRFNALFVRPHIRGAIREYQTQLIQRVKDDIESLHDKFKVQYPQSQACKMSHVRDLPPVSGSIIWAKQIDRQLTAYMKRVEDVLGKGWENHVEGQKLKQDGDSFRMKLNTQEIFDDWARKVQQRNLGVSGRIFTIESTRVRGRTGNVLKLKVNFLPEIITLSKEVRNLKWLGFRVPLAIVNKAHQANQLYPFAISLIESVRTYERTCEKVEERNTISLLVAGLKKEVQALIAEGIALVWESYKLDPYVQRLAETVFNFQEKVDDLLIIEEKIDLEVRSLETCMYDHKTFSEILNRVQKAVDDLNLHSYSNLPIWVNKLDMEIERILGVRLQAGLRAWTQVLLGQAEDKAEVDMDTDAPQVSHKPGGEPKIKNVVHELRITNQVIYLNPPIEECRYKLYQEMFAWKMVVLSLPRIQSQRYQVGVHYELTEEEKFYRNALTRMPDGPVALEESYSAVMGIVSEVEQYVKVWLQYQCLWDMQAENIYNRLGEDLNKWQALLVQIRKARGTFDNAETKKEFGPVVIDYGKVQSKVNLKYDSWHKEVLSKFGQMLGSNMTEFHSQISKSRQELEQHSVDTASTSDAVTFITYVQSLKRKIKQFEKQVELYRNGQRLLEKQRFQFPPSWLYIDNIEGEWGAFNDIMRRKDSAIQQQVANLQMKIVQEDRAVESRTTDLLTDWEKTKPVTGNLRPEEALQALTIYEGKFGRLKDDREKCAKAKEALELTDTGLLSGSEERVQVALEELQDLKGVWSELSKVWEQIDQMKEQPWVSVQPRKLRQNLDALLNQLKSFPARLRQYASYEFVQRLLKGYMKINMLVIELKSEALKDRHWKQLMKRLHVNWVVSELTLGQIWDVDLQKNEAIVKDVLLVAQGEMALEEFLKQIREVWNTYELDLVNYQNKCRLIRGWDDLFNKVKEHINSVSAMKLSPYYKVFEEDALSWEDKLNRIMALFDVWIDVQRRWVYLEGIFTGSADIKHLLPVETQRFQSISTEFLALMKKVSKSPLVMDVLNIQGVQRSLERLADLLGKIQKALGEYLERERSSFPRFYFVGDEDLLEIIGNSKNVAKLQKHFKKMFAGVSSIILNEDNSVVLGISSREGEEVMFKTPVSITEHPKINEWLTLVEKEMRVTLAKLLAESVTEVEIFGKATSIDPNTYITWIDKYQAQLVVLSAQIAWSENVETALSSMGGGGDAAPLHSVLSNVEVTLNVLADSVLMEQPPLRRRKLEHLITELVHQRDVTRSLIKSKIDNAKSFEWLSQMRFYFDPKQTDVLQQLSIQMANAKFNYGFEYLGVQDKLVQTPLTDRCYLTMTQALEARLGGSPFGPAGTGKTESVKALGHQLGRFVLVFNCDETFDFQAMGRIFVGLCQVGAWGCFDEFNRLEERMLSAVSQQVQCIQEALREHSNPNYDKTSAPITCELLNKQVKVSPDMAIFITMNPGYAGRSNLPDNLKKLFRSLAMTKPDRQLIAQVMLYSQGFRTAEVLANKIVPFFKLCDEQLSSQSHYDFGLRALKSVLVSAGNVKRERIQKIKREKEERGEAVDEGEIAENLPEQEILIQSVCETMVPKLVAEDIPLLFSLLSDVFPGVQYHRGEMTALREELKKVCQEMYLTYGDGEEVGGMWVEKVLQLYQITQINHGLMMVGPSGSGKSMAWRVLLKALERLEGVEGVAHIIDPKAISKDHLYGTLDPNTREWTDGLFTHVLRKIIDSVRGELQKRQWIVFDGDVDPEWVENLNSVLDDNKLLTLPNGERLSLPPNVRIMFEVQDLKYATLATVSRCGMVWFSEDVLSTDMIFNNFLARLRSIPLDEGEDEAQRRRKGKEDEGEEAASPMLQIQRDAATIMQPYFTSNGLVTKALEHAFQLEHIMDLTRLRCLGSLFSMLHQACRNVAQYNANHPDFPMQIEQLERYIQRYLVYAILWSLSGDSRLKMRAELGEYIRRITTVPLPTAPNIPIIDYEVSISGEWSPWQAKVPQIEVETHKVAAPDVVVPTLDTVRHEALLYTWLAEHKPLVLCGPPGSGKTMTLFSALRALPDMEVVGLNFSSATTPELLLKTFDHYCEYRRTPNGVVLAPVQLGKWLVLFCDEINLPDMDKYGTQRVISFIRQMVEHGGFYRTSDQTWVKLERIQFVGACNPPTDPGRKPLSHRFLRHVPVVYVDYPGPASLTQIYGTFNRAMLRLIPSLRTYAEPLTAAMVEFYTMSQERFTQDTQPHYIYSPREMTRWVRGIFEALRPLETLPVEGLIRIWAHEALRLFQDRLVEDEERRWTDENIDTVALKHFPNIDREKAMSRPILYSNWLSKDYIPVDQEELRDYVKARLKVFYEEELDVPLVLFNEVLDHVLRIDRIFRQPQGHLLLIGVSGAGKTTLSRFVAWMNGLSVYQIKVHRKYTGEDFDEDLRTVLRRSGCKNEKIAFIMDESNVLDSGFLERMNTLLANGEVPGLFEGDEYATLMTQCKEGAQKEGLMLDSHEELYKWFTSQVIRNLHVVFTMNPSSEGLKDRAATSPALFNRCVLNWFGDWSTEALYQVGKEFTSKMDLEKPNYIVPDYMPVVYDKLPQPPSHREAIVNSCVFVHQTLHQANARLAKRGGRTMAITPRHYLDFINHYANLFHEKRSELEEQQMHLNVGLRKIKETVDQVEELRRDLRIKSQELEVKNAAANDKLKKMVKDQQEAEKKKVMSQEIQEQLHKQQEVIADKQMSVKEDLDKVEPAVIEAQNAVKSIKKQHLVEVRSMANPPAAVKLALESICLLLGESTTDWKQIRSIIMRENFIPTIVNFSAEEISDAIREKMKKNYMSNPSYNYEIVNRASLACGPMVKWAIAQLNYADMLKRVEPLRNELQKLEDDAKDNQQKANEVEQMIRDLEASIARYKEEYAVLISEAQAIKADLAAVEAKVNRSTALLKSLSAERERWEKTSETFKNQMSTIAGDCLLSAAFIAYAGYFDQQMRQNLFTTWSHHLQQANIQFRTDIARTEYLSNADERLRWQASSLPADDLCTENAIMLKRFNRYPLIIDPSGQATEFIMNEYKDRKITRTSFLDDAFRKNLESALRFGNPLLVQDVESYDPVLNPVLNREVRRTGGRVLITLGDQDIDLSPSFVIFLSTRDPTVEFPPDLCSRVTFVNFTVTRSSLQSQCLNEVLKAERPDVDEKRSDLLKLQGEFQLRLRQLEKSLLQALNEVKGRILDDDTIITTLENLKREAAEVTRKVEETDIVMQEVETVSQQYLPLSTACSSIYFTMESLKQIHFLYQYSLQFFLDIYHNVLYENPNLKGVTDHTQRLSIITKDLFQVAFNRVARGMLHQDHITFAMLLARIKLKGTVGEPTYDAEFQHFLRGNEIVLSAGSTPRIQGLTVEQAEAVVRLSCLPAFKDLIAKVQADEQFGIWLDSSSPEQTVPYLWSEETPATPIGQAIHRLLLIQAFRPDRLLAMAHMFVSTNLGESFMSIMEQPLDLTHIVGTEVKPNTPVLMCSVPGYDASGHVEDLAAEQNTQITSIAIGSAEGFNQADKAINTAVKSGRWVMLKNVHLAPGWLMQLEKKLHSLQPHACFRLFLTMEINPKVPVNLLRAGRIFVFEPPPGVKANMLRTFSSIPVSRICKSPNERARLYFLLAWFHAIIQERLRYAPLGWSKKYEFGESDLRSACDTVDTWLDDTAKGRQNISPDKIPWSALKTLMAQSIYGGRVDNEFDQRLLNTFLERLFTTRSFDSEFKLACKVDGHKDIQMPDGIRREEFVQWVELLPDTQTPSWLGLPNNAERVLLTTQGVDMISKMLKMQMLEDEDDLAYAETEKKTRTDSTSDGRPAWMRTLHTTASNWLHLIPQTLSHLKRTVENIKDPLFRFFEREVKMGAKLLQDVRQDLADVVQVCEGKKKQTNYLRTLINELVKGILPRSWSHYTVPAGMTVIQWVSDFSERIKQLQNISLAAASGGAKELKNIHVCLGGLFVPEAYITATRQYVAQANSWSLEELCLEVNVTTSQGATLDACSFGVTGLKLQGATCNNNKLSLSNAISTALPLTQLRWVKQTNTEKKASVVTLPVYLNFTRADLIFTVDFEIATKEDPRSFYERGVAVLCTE
UniProt Q14181: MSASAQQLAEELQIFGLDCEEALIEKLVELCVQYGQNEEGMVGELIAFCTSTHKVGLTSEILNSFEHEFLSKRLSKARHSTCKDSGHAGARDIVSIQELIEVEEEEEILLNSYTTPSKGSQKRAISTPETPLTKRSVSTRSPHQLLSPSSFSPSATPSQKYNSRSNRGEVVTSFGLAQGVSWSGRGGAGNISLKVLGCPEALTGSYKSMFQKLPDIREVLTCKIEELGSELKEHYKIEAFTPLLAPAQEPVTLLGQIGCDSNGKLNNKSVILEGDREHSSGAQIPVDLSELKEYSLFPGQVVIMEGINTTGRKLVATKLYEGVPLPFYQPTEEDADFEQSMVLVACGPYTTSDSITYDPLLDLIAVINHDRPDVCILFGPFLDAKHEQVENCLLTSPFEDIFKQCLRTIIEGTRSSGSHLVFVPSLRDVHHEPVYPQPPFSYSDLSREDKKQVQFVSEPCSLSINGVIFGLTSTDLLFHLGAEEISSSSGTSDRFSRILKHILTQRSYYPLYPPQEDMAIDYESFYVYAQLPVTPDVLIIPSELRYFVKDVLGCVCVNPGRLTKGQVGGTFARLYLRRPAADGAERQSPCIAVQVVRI

Compound: COC(=O)/C=C/c1ccccc1 [methyl cinnamate]
Assay: log2 ratio of iodoacetamide-alkyne labeling of the cysteine site, DMSO over compound (competition); higher = stronger covalent engagement of the cysteine by the compound, active = 1 or more
Settings: 500 µM; treatment time 1 h; system: HEK293T cell lysate
Summary of the method: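 After 1 h at ambient temperature with vehicle or electrophile (500 µM), HEK293T lysate (2 mg/mL) was labelled for 1 h with iodoacetamide alkyne and clicked to sCIP-TMT reagents. Pooled samples were trypsin-digested overnight at 37 °C, streptavidin-enriched, acid-eluted and analysed by Orbitrap Eclipse LC-MS/MS with FAIMS, then quantified in FragPipe over three replicates with duplicate channels. A cysteine's log2 competition ratio is its mean control-channel over mean compound-channel reporter intensity. Cysteines quantified in only one replicate were not included.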

log2 ratio of iodoacetamide-alkyne labeling, inactive:
KPNB1 C585 (UniProt Q14974) -0.09, FHL2 C132 (UniProt Q14192) 0.202, SART3 C472 (UniProt Q15020) -0.0135, TUBB3 C303 (UniProt Q13509) -0.0439, DDX39B C165 (UniProt Q13838) 0.147, NUMA1 C961 (UniProt Q14980) 0.204, FHL1 C191 (UniProt Q13642) 0.061, CHD4 C1121 (UniProt Q14839) -0.0501, SLBP C15 (UniProt Q14493) 0.162, TRIM25 C70 (UniProt Q14258) 0.0289, RBM39 C478 (UniProt Q14498) -0.0233, FHL3 C150 (UniProt Q13643) 0.0596, KRR1 C102 (UniProt Q13601) -0.00121, DYNC1H1 C2076 (UniProt Q14204) -0.0527, SART3 C537 (UniProt Q15020) -0.0793, USP10 C456 (UniProt Q14694) 0.129, GNL2 C336 (UniProt Q13823) 0.428, NPAT C551 (UniProt Q14207) 0.306, GAMT C16 (UniProt Q14353) 0.123, FHL1 C7 (UniProt Q13642) 0.0331, BYSL C381 (UniProt Q13895) 0.0906, UBE4A C710 (UniProt Q14139) -0.103, NUMA1 C375 (UniProt Q14980) 0.227, UniProt Q13885_C12 0.201, FHL1 C71 (UniProt Q13642) 0.317, FHL1 C10 (UniProt Q13642) -0.044, PIN1 C57 (UniProt Q13526) 0.0674, UniProt Q15019_C111 0.236, BMS1 C556 (UniProt Q14692) 0.394, EIF3A C404 (UniProt Q14152) 0.313, MORC3 C632 (UniProt Q14149) 0.515, POLA2 C590 (UniProt Q14181) 0.0391, DYNC1H1 C1888 (UniProt Q14204) 0.11, UniProt Q13885_C239 0.0467, CHD4 C1827 (UniProt Q14839) 0.2, URB2 C1132 (UniProt Q14146) -0.187, DYNC1H1 C2594 (UniProt Q14204) -0.116, SPTAN1 C1314 (UniProt Q13813) 0.141
